Measured values from the supplement of paper PMC12067093, “Discovery and optimisation of a covalent ligand for TRIM25 and its application to targeted protein ubiquitination” (Chemical Science, 2025).
The list shows a part of the results.

Sequences of proteins named here, by UniProt entry; tags and fusion partners are left off. A change or cut given only in a name is not applied to a line headed by its entry.
UniProt Q99807: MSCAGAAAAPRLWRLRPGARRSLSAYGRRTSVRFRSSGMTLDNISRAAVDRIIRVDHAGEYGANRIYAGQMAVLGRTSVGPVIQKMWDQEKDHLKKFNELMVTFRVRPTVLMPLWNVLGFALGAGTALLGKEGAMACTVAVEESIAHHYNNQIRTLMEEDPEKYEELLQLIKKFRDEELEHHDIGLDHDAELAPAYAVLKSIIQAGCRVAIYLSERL
UniProt Q7Z7A1: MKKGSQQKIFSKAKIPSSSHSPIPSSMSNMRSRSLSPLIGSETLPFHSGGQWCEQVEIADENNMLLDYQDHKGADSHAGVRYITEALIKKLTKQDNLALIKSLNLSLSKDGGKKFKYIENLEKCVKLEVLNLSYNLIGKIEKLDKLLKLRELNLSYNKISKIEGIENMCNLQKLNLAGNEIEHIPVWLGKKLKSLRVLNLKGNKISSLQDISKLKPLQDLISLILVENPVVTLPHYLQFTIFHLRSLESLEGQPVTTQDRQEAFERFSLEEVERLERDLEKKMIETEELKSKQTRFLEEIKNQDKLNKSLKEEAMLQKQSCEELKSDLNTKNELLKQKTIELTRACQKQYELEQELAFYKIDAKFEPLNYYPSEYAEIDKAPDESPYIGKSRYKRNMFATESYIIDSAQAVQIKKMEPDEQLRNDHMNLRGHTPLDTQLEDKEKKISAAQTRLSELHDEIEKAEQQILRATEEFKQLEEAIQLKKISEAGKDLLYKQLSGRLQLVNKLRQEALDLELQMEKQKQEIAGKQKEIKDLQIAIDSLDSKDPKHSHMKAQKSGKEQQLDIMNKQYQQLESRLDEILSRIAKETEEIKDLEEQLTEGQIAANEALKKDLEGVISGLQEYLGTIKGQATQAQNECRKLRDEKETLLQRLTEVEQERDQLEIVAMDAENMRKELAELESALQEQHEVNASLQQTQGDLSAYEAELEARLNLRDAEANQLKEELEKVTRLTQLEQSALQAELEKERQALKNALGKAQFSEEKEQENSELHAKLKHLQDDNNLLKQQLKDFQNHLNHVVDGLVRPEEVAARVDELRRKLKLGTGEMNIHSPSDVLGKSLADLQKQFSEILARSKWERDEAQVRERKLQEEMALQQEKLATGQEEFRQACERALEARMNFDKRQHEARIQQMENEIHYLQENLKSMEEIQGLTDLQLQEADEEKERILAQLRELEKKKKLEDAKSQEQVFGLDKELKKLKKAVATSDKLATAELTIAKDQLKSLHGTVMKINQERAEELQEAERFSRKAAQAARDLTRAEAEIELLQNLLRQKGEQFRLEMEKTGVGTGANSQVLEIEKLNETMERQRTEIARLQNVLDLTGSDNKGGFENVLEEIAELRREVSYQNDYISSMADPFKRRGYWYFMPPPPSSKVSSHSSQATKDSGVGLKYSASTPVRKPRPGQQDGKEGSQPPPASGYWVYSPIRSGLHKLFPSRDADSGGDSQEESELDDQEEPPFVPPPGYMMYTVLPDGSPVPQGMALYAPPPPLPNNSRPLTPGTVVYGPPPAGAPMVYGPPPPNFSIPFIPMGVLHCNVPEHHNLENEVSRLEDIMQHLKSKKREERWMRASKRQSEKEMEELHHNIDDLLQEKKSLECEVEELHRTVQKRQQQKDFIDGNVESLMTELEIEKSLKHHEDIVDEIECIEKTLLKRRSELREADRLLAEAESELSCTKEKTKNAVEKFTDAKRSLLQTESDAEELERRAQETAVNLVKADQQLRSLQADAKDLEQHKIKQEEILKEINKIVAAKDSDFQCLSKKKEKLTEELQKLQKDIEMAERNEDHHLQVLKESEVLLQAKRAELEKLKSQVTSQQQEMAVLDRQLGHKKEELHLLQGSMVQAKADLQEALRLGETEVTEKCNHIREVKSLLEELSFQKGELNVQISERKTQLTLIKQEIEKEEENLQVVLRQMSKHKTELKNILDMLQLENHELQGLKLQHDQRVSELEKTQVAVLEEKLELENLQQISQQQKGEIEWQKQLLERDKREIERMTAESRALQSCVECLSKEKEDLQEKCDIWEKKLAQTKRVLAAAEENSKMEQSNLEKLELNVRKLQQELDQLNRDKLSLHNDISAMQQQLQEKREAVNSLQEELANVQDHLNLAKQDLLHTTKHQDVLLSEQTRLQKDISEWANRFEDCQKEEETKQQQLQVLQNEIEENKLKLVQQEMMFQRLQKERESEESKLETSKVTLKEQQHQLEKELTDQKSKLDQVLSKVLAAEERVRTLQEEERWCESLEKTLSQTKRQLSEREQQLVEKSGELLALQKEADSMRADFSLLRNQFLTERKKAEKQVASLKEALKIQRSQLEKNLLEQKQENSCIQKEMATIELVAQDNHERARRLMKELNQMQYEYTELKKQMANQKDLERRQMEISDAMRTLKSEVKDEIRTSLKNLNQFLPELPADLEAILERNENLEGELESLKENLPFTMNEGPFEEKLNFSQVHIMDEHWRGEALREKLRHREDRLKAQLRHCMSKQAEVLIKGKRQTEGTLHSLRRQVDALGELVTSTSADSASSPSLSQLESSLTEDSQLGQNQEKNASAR
UniProt Q9Y678: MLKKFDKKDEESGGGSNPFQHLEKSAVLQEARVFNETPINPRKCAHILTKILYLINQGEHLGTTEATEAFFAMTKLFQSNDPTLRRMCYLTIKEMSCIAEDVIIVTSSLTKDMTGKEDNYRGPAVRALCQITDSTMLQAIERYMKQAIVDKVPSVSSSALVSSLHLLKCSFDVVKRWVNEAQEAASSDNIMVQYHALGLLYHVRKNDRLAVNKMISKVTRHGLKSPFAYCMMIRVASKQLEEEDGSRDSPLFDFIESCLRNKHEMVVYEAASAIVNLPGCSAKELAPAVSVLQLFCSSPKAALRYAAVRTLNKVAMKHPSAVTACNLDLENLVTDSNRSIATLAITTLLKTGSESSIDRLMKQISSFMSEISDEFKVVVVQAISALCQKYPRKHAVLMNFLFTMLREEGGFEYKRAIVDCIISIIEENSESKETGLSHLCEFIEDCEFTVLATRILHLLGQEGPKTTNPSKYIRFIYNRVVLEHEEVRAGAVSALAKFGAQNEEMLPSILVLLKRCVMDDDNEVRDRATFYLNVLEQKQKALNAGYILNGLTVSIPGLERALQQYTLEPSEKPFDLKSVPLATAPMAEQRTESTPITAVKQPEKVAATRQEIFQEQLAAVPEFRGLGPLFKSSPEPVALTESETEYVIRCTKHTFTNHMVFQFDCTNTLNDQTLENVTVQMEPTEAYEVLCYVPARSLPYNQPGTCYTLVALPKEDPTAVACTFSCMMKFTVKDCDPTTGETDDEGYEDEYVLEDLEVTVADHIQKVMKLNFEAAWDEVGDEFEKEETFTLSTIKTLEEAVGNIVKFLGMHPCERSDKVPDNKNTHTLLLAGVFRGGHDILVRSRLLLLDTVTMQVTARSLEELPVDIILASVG
UniProt Q9H9Q2: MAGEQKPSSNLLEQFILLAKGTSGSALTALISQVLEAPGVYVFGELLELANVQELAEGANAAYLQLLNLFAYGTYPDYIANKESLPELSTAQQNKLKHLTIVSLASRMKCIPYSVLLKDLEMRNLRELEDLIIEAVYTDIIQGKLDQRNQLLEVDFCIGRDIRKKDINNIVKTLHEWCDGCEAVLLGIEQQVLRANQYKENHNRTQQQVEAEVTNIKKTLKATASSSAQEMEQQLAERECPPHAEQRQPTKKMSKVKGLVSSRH
UniProt Q86VU5: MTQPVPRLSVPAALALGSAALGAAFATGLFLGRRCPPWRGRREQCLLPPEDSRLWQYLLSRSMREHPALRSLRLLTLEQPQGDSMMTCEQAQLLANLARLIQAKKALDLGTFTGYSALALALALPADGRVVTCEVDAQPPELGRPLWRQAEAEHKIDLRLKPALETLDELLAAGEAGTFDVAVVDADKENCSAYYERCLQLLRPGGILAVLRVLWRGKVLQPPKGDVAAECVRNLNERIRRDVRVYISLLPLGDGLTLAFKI
UniProt Q8N1G2: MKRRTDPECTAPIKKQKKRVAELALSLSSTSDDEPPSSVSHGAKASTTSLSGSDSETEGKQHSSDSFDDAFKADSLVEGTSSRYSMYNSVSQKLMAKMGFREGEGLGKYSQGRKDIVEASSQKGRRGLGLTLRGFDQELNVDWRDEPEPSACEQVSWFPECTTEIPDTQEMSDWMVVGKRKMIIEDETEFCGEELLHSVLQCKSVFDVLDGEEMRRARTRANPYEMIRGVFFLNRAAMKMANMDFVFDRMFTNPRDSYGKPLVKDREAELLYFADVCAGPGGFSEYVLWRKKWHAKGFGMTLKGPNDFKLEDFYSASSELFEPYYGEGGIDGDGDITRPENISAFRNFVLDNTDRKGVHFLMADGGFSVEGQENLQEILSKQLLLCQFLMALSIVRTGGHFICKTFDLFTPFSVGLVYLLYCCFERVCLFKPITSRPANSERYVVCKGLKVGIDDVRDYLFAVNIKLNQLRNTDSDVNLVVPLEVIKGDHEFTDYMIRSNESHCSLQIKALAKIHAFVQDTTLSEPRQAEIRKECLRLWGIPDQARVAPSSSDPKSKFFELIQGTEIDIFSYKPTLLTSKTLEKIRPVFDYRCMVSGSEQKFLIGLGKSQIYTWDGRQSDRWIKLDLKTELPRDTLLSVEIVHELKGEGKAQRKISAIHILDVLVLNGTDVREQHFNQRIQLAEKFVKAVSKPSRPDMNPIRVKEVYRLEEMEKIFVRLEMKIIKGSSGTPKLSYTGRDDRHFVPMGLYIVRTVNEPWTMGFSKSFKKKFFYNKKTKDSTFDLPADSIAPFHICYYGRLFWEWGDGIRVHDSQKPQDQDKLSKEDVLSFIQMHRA
UniProt P21964: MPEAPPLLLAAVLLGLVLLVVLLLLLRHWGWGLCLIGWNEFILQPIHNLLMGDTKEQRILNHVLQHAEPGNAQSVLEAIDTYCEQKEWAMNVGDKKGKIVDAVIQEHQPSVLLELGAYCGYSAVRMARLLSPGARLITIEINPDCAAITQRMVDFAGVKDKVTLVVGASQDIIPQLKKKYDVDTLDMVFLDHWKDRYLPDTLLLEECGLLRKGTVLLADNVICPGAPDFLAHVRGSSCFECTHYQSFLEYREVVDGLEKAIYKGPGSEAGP
UniProt Q9H9E3: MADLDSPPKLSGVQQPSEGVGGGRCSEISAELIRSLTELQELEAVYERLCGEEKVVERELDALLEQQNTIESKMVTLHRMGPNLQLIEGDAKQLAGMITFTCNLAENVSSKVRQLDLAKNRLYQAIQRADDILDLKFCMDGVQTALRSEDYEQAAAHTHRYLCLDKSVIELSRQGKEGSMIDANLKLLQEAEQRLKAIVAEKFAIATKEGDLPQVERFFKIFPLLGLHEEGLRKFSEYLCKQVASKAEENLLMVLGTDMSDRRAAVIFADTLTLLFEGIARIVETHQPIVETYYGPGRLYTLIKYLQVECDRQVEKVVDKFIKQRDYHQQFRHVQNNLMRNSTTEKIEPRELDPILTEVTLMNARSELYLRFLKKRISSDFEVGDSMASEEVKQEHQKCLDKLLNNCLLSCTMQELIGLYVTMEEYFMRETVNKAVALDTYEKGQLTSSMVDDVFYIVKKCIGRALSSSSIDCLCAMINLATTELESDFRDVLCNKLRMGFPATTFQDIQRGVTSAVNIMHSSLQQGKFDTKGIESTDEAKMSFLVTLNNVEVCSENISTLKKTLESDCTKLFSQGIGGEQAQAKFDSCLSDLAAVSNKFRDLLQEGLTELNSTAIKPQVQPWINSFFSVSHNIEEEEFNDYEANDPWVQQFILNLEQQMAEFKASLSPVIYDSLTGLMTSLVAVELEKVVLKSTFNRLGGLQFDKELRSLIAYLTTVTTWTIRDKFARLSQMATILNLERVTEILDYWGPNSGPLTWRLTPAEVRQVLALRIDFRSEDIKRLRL
UniProt Q92905, whole entry, looked up: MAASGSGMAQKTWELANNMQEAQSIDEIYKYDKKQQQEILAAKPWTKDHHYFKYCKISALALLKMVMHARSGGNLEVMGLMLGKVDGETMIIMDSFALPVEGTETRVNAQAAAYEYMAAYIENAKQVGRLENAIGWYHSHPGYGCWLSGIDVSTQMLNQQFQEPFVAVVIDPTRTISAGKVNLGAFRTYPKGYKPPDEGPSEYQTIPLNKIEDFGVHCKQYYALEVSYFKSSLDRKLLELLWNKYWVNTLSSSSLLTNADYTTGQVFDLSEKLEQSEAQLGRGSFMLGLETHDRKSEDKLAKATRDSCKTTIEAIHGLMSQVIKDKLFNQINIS
UniProt Q9UIV1, whole entry, looked up: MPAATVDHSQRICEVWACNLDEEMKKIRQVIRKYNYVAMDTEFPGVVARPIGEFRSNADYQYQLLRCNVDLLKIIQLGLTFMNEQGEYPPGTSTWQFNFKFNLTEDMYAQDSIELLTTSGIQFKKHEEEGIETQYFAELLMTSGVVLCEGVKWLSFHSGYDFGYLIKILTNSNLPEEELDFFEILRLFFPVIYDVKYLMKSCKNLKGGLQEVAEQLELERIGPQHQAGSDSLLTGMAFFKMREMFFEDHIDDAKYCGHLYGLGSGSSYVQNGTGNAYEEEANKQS

Compound: CC1Cc2ccccc2N1C(=O)C1CCCN(C1)C(=O)CCl (mixture of isomers) [TRIM25 ligand 11 (diastereomer mixture)]
Assay: probe-labelled cysteine peptide fold change vs DMSO (competition) (log2 fold change); higher = less target engagement (more negative = stronger competition)
Conditions: THP-1, incubation time: 4 h
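Also: competitive chemoproteomic profiling in live THP-1 cells with an iodoacetamide desthiobiotin (IA-DTB) probe, comparing probe-labelled peptide intensities in compound-treated cells against DMSO-treated controls.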

Target | probe-labelled cysteine peptide fold change (10 µM) | probe-labelled cysteine peptide fold change (50 µM)
COPA_P53621_580_GNNVYCLDR (UniProt P53621) | 0.0345 | 0.193
COQ7_Q99807_137_EGAMACTVAVEESIAHHYNNQIR (UniProt Q99807) | -0.0333 | -0.065
COLGALT1_Q8NBJ5_203_AAYSNFWCGMTSQGYYKR (UniProt Q8NBJ5) | -0.339 | -0.341
CNTRL_Q7Z7A1_1451_LLAEAESELSCTK (UniProt Q7Z7A1) | 0.167 | -0.0151
CLUH_O75153_84_ILAPGIEPFSLQVSPQEMVQEIHQVLMDREDTCHR (UniProt O75153) | -0.0655 | 0.0183
COPG1_Q9Y678_516_RCVMDDDNEVR (UniProt Q9Y678) | 0.169 | 0.116
COPS7B_Q9H9Q2_157_NQLLEVDFCIGR (UniProt Q9H9Q2) | -0.0213 | -0.0864
CMIP_Q8IY22_363_NGCQQPCDR (UniProt Q8IY22) | -0.167 | -0.195
COMTD1_Q86VU5_133_VVTCEVDAQPPELGR (UniProt Q86VU5) | -0.00545 | 0.0869
CNOT1_A5YKK6_219_CPVVLAPLLYPEK (UniProt A5YKK6) | -0.118 | -0.241
CMTR1_Q8N1G2_191_KMIIEDETEFCGEELLHSVLQCK (UniProt Q8N1G2) | -0.196 | -0.272
COPG1_Q9Y678_813_FLGMHPCER (UniProt Q9Y678) | 0.0207 | -0.0381
CNTRL_Q7Z7A1_1451_EADRLLAEAESELSCTK (UniProt Q7Z7A1) | -0.0109 | -0.00146
COPS4_Q9BT78_255_CQQLAAYGILEK (UniProt Q9BT78) | -0.00136 | -0.0283
COLGALT1_Q8NBJ5_283_QAEVQMYVCNKEEYGFLPVPLR (UniProt Q8NBJ5) | 0.0262 | -0.0703
COMT_P21964_207_YLPDTLLLEECGLLRK (UniProt P21964) | -0.0627 | 0.00395
COQ3_Q9NZJ6_358_GETEELQANACTNPAVHEK (UniProt Q9NZJ6) | -0.017 | -0.163
COL18A1_P39060_1604_GADFQCFQQAR (UniProt P39060) | 0.115 | 0.0994
COG4_Q9H9E3_310_YLQVECDR (UniProt Q9H9E3) | 0.101 | 0.164
COPG2_Q9UBF2_230_SQFAYCMLIR (UniProt Q9UBF2) | -0.262 | 0.206
COPS5_Q92905_218_IEDFGVHCK (UniProt Q92905) | -0.0105 | 0.00955
CNOT7_Q9UIV1_13_ICEVWACNLDEEMKK (UniProt Q9UIV1) | 0.14 | 0.111
CMSS1_Q9BQ75_121_LVIELEELNLPDSCFLK (UniProt Q9BQ75) | -0.0138 | -0.108
CMTR1_Q8N1G2_504_SNESHCSLQIK (UniProt Q8N1G2) | 0.12 | -0.202

Single records, from the list above.
CNTRL_Q7Z7A1_1451_LLAEAESELSCTK (UniProt Q7Z7A1) in the list: probe-labelled cysteine peptide fold change (10 µM): 0.167; probe-labelled cysteine peptide fold change (50 µM): -0.0151
COQ7_Q99807_137_EGAMACTVAVEESIAHHYNNQIR (UniProt Q99807) in the list: probe-labelled cysteine peptide fold change (10 µM): -0.0333; probe-labelled cysteine peptide fold change (50 µM): -0.065
